# Experimental data taken from article PMC7819943, “Rice protein-binding microarrays: a tool to detect cis-acting elements near promoter regions in rice”.
# This is one part of the list.
# Biological target: T1, OsSMF1 (Oryza sativa, UniProt Q6ZLB0 1-436)
# T1 sequence: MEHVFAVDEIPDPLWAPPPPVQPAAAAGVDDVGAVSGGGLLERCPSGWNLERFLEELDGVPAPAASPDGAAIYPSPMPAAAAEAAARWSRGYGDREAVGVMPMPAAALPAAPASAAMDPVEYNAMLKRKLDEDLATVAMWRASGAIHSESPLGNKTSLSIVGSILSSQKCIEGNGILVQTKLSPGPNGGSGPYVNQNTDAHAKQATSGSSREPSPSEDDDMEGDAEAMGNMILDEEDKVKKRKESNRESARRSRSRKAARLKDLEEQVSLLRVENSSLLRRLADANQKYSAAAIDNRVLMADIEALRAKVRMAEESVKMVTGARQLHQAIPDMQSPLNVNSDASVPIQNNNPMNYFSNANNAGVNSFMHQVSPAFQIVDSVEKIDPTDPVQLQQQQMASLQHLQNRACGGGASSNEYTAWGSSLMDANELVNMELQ
# Assay: protein-binding microarray (RPBM); PBS, 2% BSA, 51.3 ng/ul salmon testes DNA, 50 uM zinc acetate, 200 nM TF, 25 C, 1 h; high values mean tight binding
# Conditions: protein: recombinant; tags: N-terminal polyhistidine and DsRed monomer fusion (pET32a); chain copies: 2; label: CyDye5-dUTP incorporated in the synthesized complementary strand; 3' TTTTT single-stranded linker to array surface; dsDNA, one strand shown
# In short: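 An Axon 4000B scanner gave the binding signal as per-feature fluorescence intensity in arbitrary units. This followed washing of a custom Agilent array that had been incubated for 1 h at 25 °C with 200 nM protein in PBS, 2% BSA, salmon testes DNA and 50 µM zinc acetate. The proteins were transcription factors fused at the N-terminus to polyhistidine and DsRed, expressed in E. coli BL21-CodonPlus and purified on Ni–NTA.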
row,Sequence,binding signal
1,GTAGTTGCGTTTTCATATAATGGATATTATTTATTCATGTCGGAGTCACCTAGTGCAG,3190 fluorescence intensity (a.u.)
2,ACAACCAGGTCACCGTGCGATCGATCGATTGCTAATTTATCGGAGTCACCTAGTGCAG,3480 fluorescence intensity (a.u.)
3,AGGCACGCGTGAGTTCGTGACGTTTCTCGCGCACGGCGCGCGGAGTCACCTAGTGCAG,4890 fluorescence intensity (a.u.)
4,GGAAAGCGAGCCAATCCGTGGCCGAATGCTAACCTTTCCCCGGAGTCACCTAGTGCAG,3180 fluorescence intensity (a.u.)
5,TTGGTAATTTCATTCAGACATTGTTTGCAAGATTGCACCACGGAGTCACCTAGTGCAG,3200 fluorescence intensity (a.u.)
6,GCAGATATATACTGTAGCGATGGAGTAATATGATCGTCGACGGAGTCACCTAGTGCAG,4150 fluorescence intensity (a.u.)
7,AAAGTTTGTATACACGTATACAAAGTTTATATACGTGTATCGGAGTCACCTAGTGCAG,4700 fluorescence intensity (a.u.)
8,CTCTCTCTCTCGCCTCCGCCTCATCATCCTCTCCTCTCCTCGGAGTCACCTAGTGCAG,3240 fluorescence intensity (a.u.)
9,TGTTGCACATGTCCCTTTCTTCCATCGTCACAACCTTCAGCGGAGTCACCTAGTGCAG,10900 fluorescence intensity (a.u.)
10,CCCCAATCAACTTCTTCAATTATCCATGCATTCCTTACGCCGGAGTCACCTAGTGCAG,29000 fluorescence intensity (a.u.)
11,GTAACTACTAGTACCTGCCACCTCCCAGTTGCTCAGGCTTCGGAGTCACCTAGTGCAG,3150 fluorescence intensity (a.u.)
12,CGATAATGATTCTAAGCCGATGACGTCTTTGCCGATTACCCGGAGTCACCTAGTGCAG,5020 fluorescence intensity (a.u.)
13,GTTATGTAAACTCTTTAGCCCATATTGTATATGTGGCATCCGGAGTCACCTAGTGCAG,4970 fluorescence intensity (a.u.)
14,AGAAATTGCATGGCTTACTTGGCCGTGTTTGTCATAGACCCGGAGTCACCTAGTGCAG,3750 fluorescence intensity (a.u.)
15,TGGCTGCTCACCATTGCAAGAATACTGTTCGACGACTAGCCGGAGTCACCTAGTGCAG,5560 fluorescence intensity (a.u.)
16,GCGTGGGGCGCCGGTGGCGGAGGGTGGGGACGACAACCAGCGGAGTCACCTAGTGCAG,65500 fluorescence intensity (a.u.)
17,TTTTCTCTGTATGTATCCAGAAGGATATGCCACCTGGATGCGGAGTCACCTAGTGCAG,4660 fluorescence intensity (a.u.)
18,TATATTCTCATGCACCAAGCAACCACACGTACACCTATATCGGAGTCACCTAGTGCAG,4130 fluorescence intensity (a.u.)
19,CAACCATTAGAACTGCTAGTTGCTGGATATCTAGATGCATCGGAGTCACCTAGTGCAG,3520 fluorescence intensity (a.u.)
20,TTGTTTAGACTTAAACTCAATGACTTAAACTTGGAAATCACGGAGTCACCTAGTGCAG,30600 fluorescence intensity (a.u.)
21,GTTACCAGTGAGTCAATCATCTCCCTTTCTTTCCTCTCTTCGGAGTCACCTAGTGCAG,4540 fluorescence intensity (a.u.)
22,GAGCCGAGGCGTCACCCTAGTTTTGCGGTGGAGGGGTACGCGGAGTCACCTAGTGCAG,3570 fluorescence intensity (a.u.)
23,GCCAATAGCTGACGATATGTAAGTAGGTAACAACAGAGCACGGAGTCACCTAGTGCAG,3530 fluorescence intensity (a.u.)
24,TCTCACCTCTCACTTCGACTTCTCGTCGCTGGCCGCCTCTCGGAGTCACCTAGTGCAG,8080 fluorescence intensity (a.u.)
25,GACATTACGGGCCCACAAGTACGCGTCCCCACCAGCCATACGGAGTCACCTAGTGCAG,3320 fluorescence intensity (a.u.)
26,TGGGCTCACCACGTCTCCAGATTCCAGATCACCCGCCCGCCGGAGTCACCTAGTGCAG,4830 fluorescence intensity (a.u.)
27,CAATTTTCCCCAACTCGATCGACGCGGACCGGACCGGACCCGGAGTCACCTAGTGCAG,3360 fluorescence intensity (a.u.)

row,Sequence,binding signal
1,GAAGAACGCTAAAATTTAGTGACGCACTCTGAATGGCCTCCGGAGTCACCTAGTGCAG,3320 fluorescence intensity (a.u.)
2,AAAATGTACCTAAGCGATCAGGCCAACCAGGCCAGGGGCCCGGAGTCACCTAGTGCAG,3170 fluorescence intensity (a.u.)
3,ATTTGAACAACCTTAGCCACATAGACCCATATTAGTGTAGCGGAGTCACCTAGTGCAG,3870 fluorescence intensity (a.u.)
4,AGCCAATTGTTGGTGCAGTAGCACAATACGCCCATGTCATCGGAGTCACCTAGTGCAG,3610 fluorescence intensity (a.u.)
5,ACAGATTTTCGACCACAAAGAGATGGCAATGAGTTTCCTTCGGAGTCACCTAGTGCAG,15300 fluorescence intensity (a.u.)
6,CATCTTCCACTCAGTCACTCTCCGTCCTCTCCTGTCGACGCGGAGTCACCTAGTGCAG,4050 fluorescence intensity (a.u.)
7,GTACTACCTAGTTAGGGATTTCGAATTAAGCTCGATCACGCGGAGTCACCTAGTGCAG,3430 fluorescence intensity (a.u.)
8,GGCCTCCACGCTGCGTTGCCGCAATTATGCGTCACCGCGTCGGAGTCACCTAGTGCAG,6770 fluorescence intensity (a.u.)
9,TCCACCCTCACTGACATGTGGGCCACGCCCCTCGCGCGGGCGGAGTCACCTAGTGCAG,3820 fluorescence intensity (a.u.)
10,TGTACCGCGTGCTACAGCTGGCGATAATTCTATCGTCGACCGGAGTCACCTAGTGCAG,4020 fluorescence intensity (a.u.)
11,GCCTCGATCGCGGCGGTGGCGGTGGGGAGGGGAGCGCACCCGGAGTCACCTAGTGCAG,5050 fluorescence intensity (a.u.)
12,TTTTATGTGATGTCATCCATACACTAGATCTAGACTGATTCGGAGTCACCTAGTGCAG,7700 fluorescence intensity (a.u.)
13,ATGTCGCTGTGGCTCATCCGGCCCAAGCCCATTTCCCCACCGGAGTCACCTAGTGCAG,29500 fluorescence intensity (a.u.)
14,ACTGCGGTGCGCCCGTTCGCACACCATCATGCTCTGTTGCCGGAGTCACCTAGTGCAG,3530 fluorescence intensity (a.u.)
15,GGCAGCGGCCACAGAGTGACACGGCGGCGGCCAGAGCAGCCGGAGTCACCTAGTGCAG,5410 fluorescence intensity (a.u.)
16,CGGCACTCTCTGCCAGCTGGGTTCCACCGTTTCGTCGAGGCGGAGTCACCTAGTGCAG,4300 fluorescence intensity (a.u.)
17,CATCATCATCGTGGTGGTGACGTGTGGTTCGGCACTCCGGCGGAGTCACCTAGTGCAG,8410 fluorescence intensity (a.u.)
18,GAAAGGCACTTACATCACATGTGTGGACATGTGTCTCTTCCGGAGTCACCTAGTGCAG,3200 fluorescence intensity (a.u.)
19,GCCGAGAAGGCATCAACGGCACTGGCGAGGCCCTCTCAGCCGGAGTCACCTAGTGCAG,39600 fluorescence intensity (a.u.)
20,CCGCCGGCCGCTTCCACGCCTCCGTCGACCTCGCCAAGTCCGGAGTCACCTAGTGCAG,3470 fluorescence intensity (a.u.)
21,GCCTGAATCCTCCGTTGAAGAGTCGGACAACGGCCGCCGCCGGAGTCACCTAGTGCAG,8890 fluorescence intensity (a.u.)
22,GATGACGACGGCGATGACGGCGGGGCGGTTTGGAGCGGGGCGGAGTCACCTAGTGCAG,4720 fluorescence intensity (a.u.)
23,GGAGGATTTCCGGTCCAGACCACCACGTCAGCGGCGTGCCCGGAGTCACCTAGTGCAG,26000 fluorescence intensity (a.u.)
24,GGTTCAACGCTTGCCATGGAAGTAACGTACAGGGAGACTGCGGAGTCACCTAGTGCAG,3200 fluorescence intensity (a.u.)
25,TCTTCTTCTTCTTCTTCTTCATAGCTTGCCTTTCTCCCTTCGGAGTCACCTAGTGCAG,4400 fluorescence intensity (a.u.)
26,ACTACCAAACCGTGGAGTAGTGTGTGTGTGCCGTACTGTTCGGAGTCACCTAGTGCAG,21600 fluorescence intensity (a.u.)
27,CGGCCTCCACGTTCCGGGGCCCACCTGTCAGTGAGCGCCACGGAGTCACCTAGTGCAG,28900 fluorescence intensity (a.u.)

# An excerpt from further up, for reference:
row,Sequence,binding signal
21,GTTACCAGTGAGTCAATCATCTCCCTTTCTTTCCTCTCTTCGGAGTCACCTAGTGCAG,4540 fluorescence intensity (a.u.)
22,GAGCCGAGGCGTCACCCTAGTTTTGCGGTGGAGGGGTACGCGGAGTCACCTAGTGCAG,3570 fluorescence intensity (a.u.)
23,GCCAATAGCTGACGATATGTAAGTAGGTAACAACAGAGCACGGAGTCACCTAGTGCAG,3530 fluorescence intensity (a.u.)
24,TCTCACCTCTCACTTCGACTTCTCGTCGCTGGCCGCCTCTCGGAGTCACCTAGTGCAG,8080 fluorescence intensity (a.u.)
25,GACATTACGGGCCCACAAGTACGCGTCCCCACCAGCCATACGGAGTCACCTAGTGCAG,3320 fluorescence intensity (a.u.)
26,TGGGCTCACCACGTCTCCAGATTCCAGATCACCCGCCCGCCGGAGTCACCTAGTGCAG,4830 fluorescence intensity (a.u.)
27,CAATTTTCCCCAACTCGATCGACGCGGACCGGACCGGACCCGGAGTCACCTAGTGCAG,3360 fluorescence intensity (a.u.)
1,GAAGAACGCTAAAATTTAGTGACGCACTCTGAATGGCCTCCGGAGTCACCTAGTGCAG,3320 fluorescence intensity (a.u.)
2,AAAATGTACCTAAGCGATCAGGCCAACCAGGCCAGGGGCCCGGAGTCACCTAGTGCAG,3170 fluorescence intensity (a.u.)
3,ATTTGAACAACCTTAGCCACATAGACCCATATTAGTGTAGCGGAGTCACCTAGTGCAG,3870 fluorescence intensity (a.u.)
4,AGCCAATTGTTGGTGCAGTAGCACAATACGCCCATGTCATCGGAGTCACCTAGTGCAG,3610 fluorescence intensity (a.u.)
